These are yes or no findings as the source states them, for the method shown. Some results given as binding are weak or reduced against the parent protein; the word gives no strength.
How the values were obtained:
[1] = molecular target: human TNFR1 (soluble recombinant protein) (human) (UniProt P19438); assay: BIAcore, immobilized TNFR1, dAb without protease or after overnight incubation with elastase or leucozyme (text: 500 nM dAb, 100 ug/ml protease, 37 C)
[2] = molecular target: human TNFR1 (soluble recombinant protein) (human) (UniProt P19438); assay: BIAcore
[3] = molecular target: human TNFR1 (soluble recombinant protein) (human) (UniProt P19438); assay: BIAcore, immobilized TNFR1, dAb 500 nM after incubation with trypsin 0-100 ug/ml (legend: overnight at 37 C; panel title: '100ug/ml Trypsin - 1hr')
[4] = molecular target: human TNFR1 (soluble recombinant protein) (human) (UniProt P19438); assay: BIAcore after overnight trypsin incubation (0-100 µg/ml)
[5] = molecular target: human TNFR1 (soluble recombinant protein) (human) (UniProt P19438); assay: BIAcore after overnight elastase or leucozyme incubation
[6] = molecular target: human TNFR1 (soluble recombinant protein) (human) (UniProt P19438); assay: BIAcore, biotinylated TNFR1 on SA chip, dAb 250 nM after 100 ug/ml trypsin, elastase or leucozyme for 1, 3 or 24 h at 30 C; response at 10 secs relative to dAb without protease, mean of three experiments

By UniProt entry, the sequences of proteins in these tests, tags left out. Residues count along the entry.
UniProt P19438, residues 22-211: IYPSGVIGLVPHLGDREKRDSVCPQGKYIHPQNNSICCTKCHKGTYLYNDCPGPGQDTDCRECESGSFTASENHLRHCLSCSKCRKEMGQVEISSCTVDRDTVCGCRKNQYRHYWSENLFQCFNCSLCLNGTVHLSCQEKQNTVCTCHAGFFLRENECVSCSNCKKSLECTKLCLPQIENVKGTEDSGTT

- binding [1]: binds
- binding [2]: binds
- binding [3]: binds
- binding [4]: binds
- binding [5]: binds
- binding [6]: binds
B1: DOM1h-131-206 (protein)
VH: EVQLLESGGGLVQPGGSLRLSCAASGFTFAHETMVWVRQAPGKGLEWVSHIPPDGQDPFYADSVKGRFTISRDNSKNTLYLQMNSLRAEDTAVYHCALLPKRGPWFDYWGQGTLVTVSS
